Laboratory results published in doi:10.1101/2025.08.23.671895.
No constants are given. Whether binding was seen depends on the method and setting. Some binding calls cover weakened binding; strength is not graded here. One block for each molecule: values may come before it.

Sequences of proteins named here, by UniProt entry; tags and fusion partners are left off. Residues count along the entry.
UniProt P02943, 26-446: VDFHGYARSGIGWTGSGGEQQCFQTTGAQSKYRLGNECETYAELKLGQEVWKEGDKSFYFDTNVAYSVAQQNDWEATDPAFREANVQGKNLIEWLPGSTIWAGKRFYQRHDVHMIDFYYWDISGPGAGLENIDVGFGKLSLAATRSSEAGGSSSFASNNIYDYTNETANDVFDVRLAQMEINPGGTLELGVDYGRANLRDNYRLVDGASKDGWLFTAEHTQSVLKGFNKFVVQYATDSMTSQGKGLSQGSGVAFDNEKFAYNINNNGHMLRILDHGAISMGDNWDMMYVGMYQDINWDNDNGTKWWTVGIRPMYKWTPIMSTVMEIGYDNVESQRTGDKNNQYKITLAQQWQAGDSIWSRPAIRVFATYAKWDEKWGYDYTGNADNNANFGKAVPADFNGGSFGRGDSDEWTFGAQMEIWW

How the values were obtained:
[1] = molecular target: maltoporin (UniProt P02943); experiment: negative-staining EM
[2] = molecular target: aquaporin-12 (UniProt Q8IXF9); experiment: SEC + other: negative-staining EM

- binding [1]: binds
Molecule: maltoporin (from UniProt P02943 26-446)

- binding [2]: binds
B1: aquaporin-12 (protein, UniProt Q8IXF9 1-295)
chain: MAGLNVSLSFFFATFALCEAARRASKALLPVGAYEVFAREAMRTLVELGPWAGDFGPDLLLTLLFLLFLAHGVTLDGASANPTVSLQEFLMAEQSLPGTLLKLAAQGLGMQAACTLMRLCWAWELSDLHLLQSLMAQSCSSALRTSVPHGALVEAACAFCFHLTLLHLRHSPPAYSGPAVALLVTVTAYTAGPFTSAFFNPALAASVTFACSGHTLLEYVQVYWLGPLTGMVLAVLLHQGRLPHLFQRNLFYGQKNKYRAPRGKPAPASGDTQTPAKGSSVREPGRSGVEGPHSS
